Experimental data published in PMC10219339.
The exact form of at least one protein or probe is not confirmed.

Sequences of proteins named here, by UniProt entry; tags and fusion partners are left off. A change or cut given only in a name is not applied to a line headed by its entry.
UniProt P0A9A9: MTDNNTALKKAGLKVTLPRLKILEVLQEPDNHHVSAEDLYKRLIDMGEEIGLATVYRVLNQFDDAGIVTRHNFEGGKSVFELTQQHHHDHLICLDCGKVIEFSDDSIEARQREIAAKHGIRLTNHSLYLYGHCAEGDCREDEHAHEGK

Biological target: Fur (ferric uptake regulator), His-tagged (UniProt P0A9A9)
Assay: EMSA
Conditions: 200 uM CoCl2; 20 mM BisTris/borate pH 7.0, 40 mM KCl, 1 mM MgCl2, 200 uM CoCl2, 5% glycerol; 0.25 pmol DNA, 0-72 pmol Fur; 37 C, 15 min; 5% native PAGE; recombinant protein; probe letters rebuilt from the primers and the genome

| Sequence | binding result |
| --- | --- |
| CAAGATCGGCTTGAAAGGTTTGCACGACATTCCTCCAGATTGTTTTTATCCCACAGCCACGTACTTCAGGGTAAGTACCTGAAAGTTACGGTCTGCGAACGCTATTCCACTGCTCCTTTATAGGTACAACAGTATAGTCTGATGGATAAGTCTGAAATTTGACGAGATCGATTTTTTTAGTGCGCAAGAGGGCTAAATTATCACTGAAGATGATTAATTTAATTACTAAACCATCAGATCGTGCTTTTTTTAGTCACTGCCCACCGCTGTTTGATTCCTGCGTAAAATTTGTCTCGCCGTCGCGTTGCGAGTAGACTTCGTGCCCTTGTCAAAAACTGGAGATTTAACTATGAGCGAAACGGCATCCTGGC (double strand) [PfrdA] | binds |
| CTTCAGTGGATGTTGACATACTCATTGCTTACTCATCAAAAGTAGCGCCAGATTCACTGCTCTTCACGGCAGATGGACGCCACATCGATTCATGGGGAGGAATAAAAAAAACCTTACAATCACTGTAGAAATTCTTTTATACAGCTAATTGATGTGGTTTTTTACTCCTTTCTATAACCTTTTGTCAACTTTAACAAAAGTTTCTTCACATTAGTTTACATAATATCAACACCATTAGCATTTAATGCCCTTTCACCCCAGATCCTTGACGACTCCAGGATAATTAGATGTTGTTGAATCGTGTCCGTTGTGAAGCAATGGAAAAAATACGGGTCTATTTTGACAGGAATTTGTGTCGATTCCTCCCCCCAAAAGAGAG (double strand) [PnuoA] | binds |
